Test results as given in PubChem BioAssay AID504327 (National Center for Advancing Translational Sciences (NCATS), 2011).
Screen size: about 390,000 compounds; about 820 (0.21%) were called active. This list was built around the results that the source calls inconclusive (neither active nor inactive); the mix of calls is not that of the screen. The call rests on the fitted dose curve; in most records, active means well fitted inhibition curve with a large enough effect; inconclusive means small, poorly fitted or top-dose-only effect, or another doubt; inactive means no such curve, though single readings can be large or run the other way. Where the call is inconclusive, the potency comes from a doubtful curve fit. Starred links: 1 amine or outer side, 2 acyl side, 3 side chain; linkers in the order of their positions; H or OH if unused. Residues, ends and D or L forms follow the SMILES beside them. *: point of attachment. CO = O=C([*:1])[*:2]; NHPh = c1ccc(N*)cc1

Chains of the proteins cited; added tags and fusions are not shown.
UniProt Q92830, whole entry, looked up: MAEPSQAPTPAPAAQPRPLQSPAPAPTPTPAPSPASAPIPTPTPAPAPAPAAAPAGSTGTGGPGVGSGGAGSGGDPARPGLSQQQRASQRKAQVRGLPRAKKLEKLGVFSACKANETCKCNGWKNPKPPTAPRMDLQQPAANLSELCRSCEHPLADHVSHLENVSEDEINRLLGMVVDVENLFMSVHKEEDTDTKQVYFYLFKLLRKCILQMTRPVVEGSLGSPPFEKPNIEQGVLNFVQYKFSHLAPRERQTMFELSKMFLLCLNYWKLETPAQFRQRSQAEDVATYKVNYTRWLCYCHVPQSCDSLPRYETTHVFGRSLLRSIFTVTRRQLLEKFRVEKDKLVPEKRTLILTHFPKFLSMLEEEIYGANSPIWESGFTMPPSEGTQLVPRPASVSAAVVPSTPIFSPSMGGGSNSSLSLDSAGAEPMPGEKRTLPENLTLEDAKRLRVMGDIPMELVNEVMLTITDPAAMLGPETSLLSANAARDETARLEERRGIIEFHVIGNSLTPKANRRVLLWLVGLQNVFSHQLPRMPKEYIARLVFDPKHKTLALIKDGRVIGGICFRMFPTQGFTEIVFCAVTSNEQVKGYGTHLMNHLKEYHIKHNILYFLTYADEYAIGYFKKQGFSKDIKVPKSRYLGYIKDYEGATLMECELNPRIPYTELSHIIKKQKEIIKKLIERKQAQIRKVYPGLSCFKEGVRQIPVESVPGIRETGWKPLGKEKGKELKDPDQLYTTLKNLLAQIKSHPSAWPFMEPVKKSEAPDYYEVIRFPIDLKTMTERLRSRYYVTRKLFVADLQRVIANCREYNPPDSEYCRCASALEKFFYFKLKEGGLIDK

molecular target: Histone acetyltransferase KAT2A (Homo sapiens) (UniProt Q92830); test: qHTS Assay for Inhibitors of GCN5L2; conditions: GCN5L2 HAT assay, ThioGlo1 CoA-SH fluorescence; activity change, negative = inhibition: at 58.9 µM (top of the series) unless noted
Outline: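 GCN5L2 (20nM final) in 50mM HEPES, 0.1mM EDTA pH 7.5, 0.01% Tween-20 was preincubated 15 min at room temperature with compound, then given ThioGlo1 (50uM), H3(1-25) peptide (75uM) and acetyl-CoA (70uM); CoA-thiol fluorescence (Ex340/Em540) was read at 0 and 20 min.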
On the % scale 0 is the no-effect control and ±100 the full control effect; potency means the concentration at half of the fitted maximal effect.

Compound | Potency | activity change, negative = inhibition
CC(Cc1cccnc1)NC(=O)CCc1nnc(-c2ccccc2)o1 (centres undefined) | inconclusive: 15.8 µM [inhibitor, partial curve] | 
Cc1ccc(S(=O)(=O)N(C)C)cc1NC(=O)COC(=O)CCC1CCCC1 | inconclusive: 20 µM [inhibitor, partial curve] | 
COc1ccc(NC(=O)C(C)n2nnc3sc(-c4ccccc4)cc3c2=O)cc1Cl (centres undefined) | inconclusive: 22.4 µM [inhibitor, partial curve, poor fit] | 
COC(=O)C1(Cc2ccc(O)cc2)OC(=O)C(O)=C1c1ccc(O)cc1 (centres undefined) | inconclusive: 0.1 µM [inhibitor, full curve, poor fit] | 
Cc1ccc(C)c(N(C(=O)c2snc(C(N)=O)c2N)C(C(=O)NCC2CCCO2)c2ccc(C)o2)c1 (centres undefined) | inconclusive: 3.16 µM [inhibitor, partial curve] | 
CCOc1ccc(CCNC(=O)COC(=O)/C=C/c2ccco2)cc1OCC | inconclusive: 0.447 µM [inhibitor, full curve, poor fit] | 
O=C(NCc1ccc(Cl)cc1)c1n[nH]c([N+](=O)[O-])c1Cl |  | inactive: -8.05%
COc1cc(/C=C2\SC(=Nc3ccc(Cl)c(C(=O)O)c3)NC2=O)c(Br)c(Br)c1O | inconclusive: 0.708 µM [inhibitor, single point] | 
COc1ccc(NC(=S)N(CCO)Cc2cc3c(C)cc(C)cc3[nH]c2=O)cc1 | inconclusive: 14.1 µM [inhibitor, partial curve, poor fit] | 
COc1ccc(OCCC(=O)OCC(=O)NCc2ccco2)cc1 |  | inactive: -9.45%
Cc1ccc2c(c1)c(=O)c(C(=O)c1ccncc1)cn2CC(=O)Nc1ccccc1Cl |  | inactive: -5.41%
CC(=O)Nc1cccc(Oc2ccc3c(c2)C(=O)NC3=O)c1 | inconclusive: 39.8 µM [inhibitor, single point] | 
O=C(Nc1ccc2nc(-c3ccco3)c(-c3ccco3)nc2c1)N1CCCCCC1 | active: 14.1 µM | 
COc1cccc(-c2ccc(C#N)c(SCC(=O)NCCc3cccc(Cl)c3)n2)c1 |  | inactive: -7.16%
Nc1ccc(Br)c2c1C(=O)c1ccccc1C2=O | inconclusive: 12.6 µM [inhibitor, single point] | 
COc1ccc(OC)c(-c2ccc(C(=O)O)o2)c1 | inconclusive: 44.7 µM [inhibitor, single point] | 
COc1cc2c(cc1OC)C(c1ccccc1Cl)N(C)CC2 (centres undefined) | inconclusive: 5.62 µM [inhibitor, single point] | 
CCN1CCN(CCCNC(=O)c2csc3c2CCCCC3)CC1 | inconclusive: 0.631 µM [inhibitor, single point] | 
CCOC(=O)C(C)On1c(-n2nc(C)cc2C)nc2ccccc2c1=O (centres undefined) | inconclusive: 0.501 µM [inhibitor, partial curve, poor fit] | 
CN(C)c1ccc(C2Nc3ccccc3C(=O)N2NS(C)(=O)=O)cc1 (centres undefined) | inconclusive: 25.1 µM [inhibitor, single point] | 
CCCNC(=O)c1ccc(N2CCC3(CC2)CC(c2ccccc2)=NO3)c(NC(=O)c2ccccc2)c1 | inconclusive: 5.62 µM [inhibitor, single point] | 
Nc1ccccc1Sc1nc2ccccc2[nH]1 | inconclusive: 35.5 µM [inhibitor, single point] | 
Cc1ccc(S(=O)(=O)c2nc(-c3ccco3)oc2SCc2ccccc2Cl)cc1 |  | inactive: -3.93%

Compound | Potency | activity change, negative = inhibition
NNC(=O)c1ccc([N+](=O)[O-])c(CS(=O)(=O)c2ccc(Cl)cc2)c1 |  | inactive: -10.2%
c1ccc(-c2cnn3nnnc3n2)cc1 | inconclusive: 6.31 µM [inhibitor, single point] | 
Cn1cnc([N+](=O)[O-])c1C(=O)Nc1cccc([N+](=O)[O-])c1 | inconclusive: 0.562 µM [inhibitor, partial curve, poor fit] | 
CN(CC(=O)Nc1cccc(F)c1)C(=O)c1ccc(-c2ccc(Cl)cc2)o1 |  | inactive: -6.2%
COc1ccc2[nH]c(S(=O)Cc3ncc(C)c(OC)c3C)nc2n1 (centres undefined) | inconclusive: 28.2 µM [inhibitor, single point] | 
CN(C)c1ncc2nc(-c3cccs3)c(=O)n(C3CC3)c2n1 | inconclusive: 35.5 µM [inhibitor, single point] | 
COc1ccc(S(=O)(=O)Nc2c(NC3CCCCC3)c3ccccc3oc2=O)cc1Cl | inconclusive: 0.708 µM [inhibitor, full curve, poor fit] | 
O=C(CCN1CCCO1)NC1CCCc2c1cnn2-c1ccccc1F (centres undefined) | inconclusive: 25.1 µM [inhibitor, single point] | 
CC(=O)N(c1ccc2oc(=O)sc2c1)S(=O)(=O)c1ccc(C(=O)O)cc1 | inconclusive: 25.1 µM [inhibitor, partial curve] | 
CS(=O)(=O)N(CC(=O)Nc1ccccc1C(=O)NCCc1ccccc1)c1ccc2c(c1)OCCO2 |  | inactive: -13.4%
Cc1ccc2c(c1)-c1c(ssc1=S)C(C)(C)N2C(=O)CN1C(=O)c2ccccc2C1=O | inconclusive: 39.8 µM [inhibitor, single point] | 
COc1ccc(NC(=O)c2nc3nc(C)cc(C(F)F)n3n2)cc1OC | inconclusive: 22.4 µM [inhibitor, partial curve, poor fit] | 
Cc1nn(-c2ccccc2)c(C)c1-c1nnc(-c2c(C)nn(-c3ccccc3)c2C)o1 |  | inactive: -7.08%
N#CCCn1cnc2ccccc21 | inconclusive: 39.8 µM [inhibitor, single point] | 
Cc1cc(C)c(C#N)c(SCCS(=O)(=O)c2ccc(C(C)(C)C)cc2)n1 | inconclusive: 20 µM [inhibitor, partial curve] | 
CCN1C(=O)C(=Cc2cccc(OC)c2Oc2ccc([N+](=O)[O-])cc2[N+](=O)[O-])SC1=S | inconclusive: 3.16 µM [inhibitor, partial curve] | 
O=C(NNC(=S)NC1CCCCC1)c1cccc(S(=O)(=O)Nc2ccccc2Cl)c1 |  | inactive: -16.2%
COc1ccc(C(C)NC(=O)Cc2cccs2)cc1 (centres undefined) | inconclusive: 0.631 µM [inhibitor, single point] | 
CC1=NN(c2ccc(Br)cc2)C(=O)/C1=C/c1cccs1 |  | inactive: -11%
Cc1nn(-c2ccccc2)c(N2CCCC2)c1/C=N/NC(=O)c1cccc(S(=O)(=O)Nc2ccc(Cl)cc2)c1 |  | inactive: -12.9%
O=C(O)CSc1nc2ccccc2s1 | inconclusive: 28.2 µM [inhibitor, single point] | 
CCOC(=O)c1c(NC(=O)C(=O)N/N=C/c2ccccc2OC)sc2c1CCCCC2 | inconclusive: 39.8 µM [inhibitor, single point] | 
CC1=C(C)CC2C(=O)N(c3cccc4ccccc34)C(=O)C2C1 (centres undefined) | inconclusive: 6.31 µM [inhibitor, single point] | 

A draw from above in order of number of heavy atoms, smallest number first:
Compound | Potency | activity change, negative = inhibition
COc1ccc(OC)c(-c2ccc(C(=O)O)o2)c1 | inconclusive: 44.7 µM [inhibitor, single point] | 
CN(C)c1ncc2nc(-c3cccs3)c(=O)n(C3CC3)c2n1 | inconclusive: 35.5 µM [inhibitor, single point] | 
COc1ccc(NC(=O)c2nc3nc(C)cc(C(F)F)n3n2)cc1OC | inconclusive: 22.4 µM [inhibitor, partial curve, poor fit] | 

(next part)

Compound | Potency | activity change, negative = inhibition
Cc1ccc(OCCSc2ncccn2)c(C)c1 |  | inactive: -8.67%
O=Nc1c(-c2cccc([N+](=O)[O-])c2)nc2ncccn12 |  | inactive: -0.397%
O=C1/C(=C\c2ccco2)CCC/C1=C\c1ccco1 | inconclusive: 39.8 µM [inhibitor, single point] | 
COc1ccc(C)cc1N(C)C(=O)c1c(C)oc2ncnc(N3CCOCC3)c12 | inconclusive: 0.794 µM [inhibitor, single point] | 
COC(=O)c1c(C)sc(-c2c(-c3ccc4c(c3)OCCO4)[nH]c3c2c(=O)n(C)c(=O)n3C)c1O |  | inactive: -12.1%
COc1cc(C(=O)Oc2c(Sc3ccc(C)cc3)c(C)nn2-c2ccccc2)cc(OC)c1OC |  | inactive: -6.06%
COC(=O)CNC(=O)CNC(=O)Nc1ccccc1 ({NHPh-CO}-Gly-Gly-OMe) | inconclusive: 5.01 µM [inhibitor, full curve] | 
COc1ccc(N2C(=O)N3[C@H](c4ccc(Cl)cc4)[C@@H]4C(=O)N(C5CCCCC5)C(=O)[C@@H]4[C@]3(C)C2=O)cc1 | inconclusive: 39.8 µM [inhibitor, single point] | 
CCNc1nc(NCC)nc(N(C)N)n1 |  | inactive: -6.7%
CCOc1ccc(C(=O)N2CCN(CCc3ccccc3)CC2)cc1OCC |  | inactive: -5.71%
Cc1ccc(COc2ccc(Br)cc2/C=N/O)cc1 | inconclusive: 7.08 µM [inhibitor, single point] | 
COc1cc2ccccc2cc1C(=O)Nc1cccc(-c2nc3cc(C)c(C)cc3o2)c1C |  | inactive: -6.74%
O=C(OCCN1CCN(C2=NS(=O)(=O)c3ccccc32)CC1)c1cccc(Br)c1 | inconclusive: 0.891 µM [inhibitor, single point] | 
CCC(=O)N1CCc2cc(Br)cc(S(=O)(=O)N3CCCC(C(=O)Nc4ccc(OC)c(Cl)c4)C3)c21 (centres undefined) |  | inactive: -6.89%
O=C(CCN1CCOCC1)NC1CCCN(Cc2ccccc2F)C1 (centres undefined) |  | inactive: -1.56%
Cc1ccc(CN(C(=O)COc2cccc([N+](=O)[O-])c2)c2ccccn2)o1 |  | inactive: -5.57%
COc1cc2c(cc1NC(=O)/C=C/c1cc(OC)c(OC)c(OC)c1)oc1ccccc12 | inconclusive: 39.8 µM [inhibitor, single point] | 
O=C(c1ccco1)N1CCN(S(=O)(=O)c2cc(Cl)ccc2Cl)CC1 | inconclusive: 39.8 µM [inhibitor, single point] | 
O=C1OCCN1C(=O)[C@H]1[C@H](c2ccccc2)C(c2ccccc2)=NN1c1ccccc1 | active: 28.2 µM | 
O=C1CCCC2=C1C(c1ccc(O)cc1)c1c(ccc3ccccc13)N2 (centres undefined) |  | inactive: -4.11%
COCCNc1cc(-c2ccccc2)nc2cc(-c3cccc(F)c3)nn12 | inconclusive: 39.8 µM [inhibitor, single point] | 
CC1(C)CC2(CC(c3ccccc3)Oc3cc(O)ccc32)NC(=O)N1 (centres undefined) | inconclusive: 8.91 µM [inhibitor, single point] | 
O=C1c2ccccc2-c2n[nH]c3cccc1c23 | inactive | 

No new results follow: an excerpt of the list.
Compound | Potency | activity change, negative = inhibition
O=C(c1ccco1)N1CCN(S(=O)(=O)c2cc(Cl)ccc2Cl)CC1 | inconclusive: 39.8 µM [inhibitor, single point] | 
O=C1OCCN1C(=O)[C@H]1[C@H](c2ccccc2)C(c2ccccc2)=NN1c1ccccc1 | active: 28.2 µM | 
O=C1CCCC2=C1C(c1ccc(O)cc1)c1c(ccc3ccccc13)N2 (centres undefined) |  | inactive: -4.11%
COCCNc1cc(-c2ccccc2)nc2cc(-c3cccc(F)c3)nn12 | inconclusive: 39.8 µM [inhibitor, single point] | 
